Assay results: PubChem BioAssay AID2073 (Sanford-Burnham Center for Chemical Genomics, 2009)
About 570 (0.2%) of roughly 290,000 compounds were called active. Inconclusive means that the source gave no clear call. Such entries were picked first, then a sample of the others. No stated cut-off is given here; in the data, active means inhibition mostly above about 51% (no sharp cut-off); inconclusive means no clear call, values can overlap the other calls; inactive means mostly below about 53%.

By UniProt entry, the sequences of proteins in these tests, tags left out.
UniProt Q00975, whole entry, looked up: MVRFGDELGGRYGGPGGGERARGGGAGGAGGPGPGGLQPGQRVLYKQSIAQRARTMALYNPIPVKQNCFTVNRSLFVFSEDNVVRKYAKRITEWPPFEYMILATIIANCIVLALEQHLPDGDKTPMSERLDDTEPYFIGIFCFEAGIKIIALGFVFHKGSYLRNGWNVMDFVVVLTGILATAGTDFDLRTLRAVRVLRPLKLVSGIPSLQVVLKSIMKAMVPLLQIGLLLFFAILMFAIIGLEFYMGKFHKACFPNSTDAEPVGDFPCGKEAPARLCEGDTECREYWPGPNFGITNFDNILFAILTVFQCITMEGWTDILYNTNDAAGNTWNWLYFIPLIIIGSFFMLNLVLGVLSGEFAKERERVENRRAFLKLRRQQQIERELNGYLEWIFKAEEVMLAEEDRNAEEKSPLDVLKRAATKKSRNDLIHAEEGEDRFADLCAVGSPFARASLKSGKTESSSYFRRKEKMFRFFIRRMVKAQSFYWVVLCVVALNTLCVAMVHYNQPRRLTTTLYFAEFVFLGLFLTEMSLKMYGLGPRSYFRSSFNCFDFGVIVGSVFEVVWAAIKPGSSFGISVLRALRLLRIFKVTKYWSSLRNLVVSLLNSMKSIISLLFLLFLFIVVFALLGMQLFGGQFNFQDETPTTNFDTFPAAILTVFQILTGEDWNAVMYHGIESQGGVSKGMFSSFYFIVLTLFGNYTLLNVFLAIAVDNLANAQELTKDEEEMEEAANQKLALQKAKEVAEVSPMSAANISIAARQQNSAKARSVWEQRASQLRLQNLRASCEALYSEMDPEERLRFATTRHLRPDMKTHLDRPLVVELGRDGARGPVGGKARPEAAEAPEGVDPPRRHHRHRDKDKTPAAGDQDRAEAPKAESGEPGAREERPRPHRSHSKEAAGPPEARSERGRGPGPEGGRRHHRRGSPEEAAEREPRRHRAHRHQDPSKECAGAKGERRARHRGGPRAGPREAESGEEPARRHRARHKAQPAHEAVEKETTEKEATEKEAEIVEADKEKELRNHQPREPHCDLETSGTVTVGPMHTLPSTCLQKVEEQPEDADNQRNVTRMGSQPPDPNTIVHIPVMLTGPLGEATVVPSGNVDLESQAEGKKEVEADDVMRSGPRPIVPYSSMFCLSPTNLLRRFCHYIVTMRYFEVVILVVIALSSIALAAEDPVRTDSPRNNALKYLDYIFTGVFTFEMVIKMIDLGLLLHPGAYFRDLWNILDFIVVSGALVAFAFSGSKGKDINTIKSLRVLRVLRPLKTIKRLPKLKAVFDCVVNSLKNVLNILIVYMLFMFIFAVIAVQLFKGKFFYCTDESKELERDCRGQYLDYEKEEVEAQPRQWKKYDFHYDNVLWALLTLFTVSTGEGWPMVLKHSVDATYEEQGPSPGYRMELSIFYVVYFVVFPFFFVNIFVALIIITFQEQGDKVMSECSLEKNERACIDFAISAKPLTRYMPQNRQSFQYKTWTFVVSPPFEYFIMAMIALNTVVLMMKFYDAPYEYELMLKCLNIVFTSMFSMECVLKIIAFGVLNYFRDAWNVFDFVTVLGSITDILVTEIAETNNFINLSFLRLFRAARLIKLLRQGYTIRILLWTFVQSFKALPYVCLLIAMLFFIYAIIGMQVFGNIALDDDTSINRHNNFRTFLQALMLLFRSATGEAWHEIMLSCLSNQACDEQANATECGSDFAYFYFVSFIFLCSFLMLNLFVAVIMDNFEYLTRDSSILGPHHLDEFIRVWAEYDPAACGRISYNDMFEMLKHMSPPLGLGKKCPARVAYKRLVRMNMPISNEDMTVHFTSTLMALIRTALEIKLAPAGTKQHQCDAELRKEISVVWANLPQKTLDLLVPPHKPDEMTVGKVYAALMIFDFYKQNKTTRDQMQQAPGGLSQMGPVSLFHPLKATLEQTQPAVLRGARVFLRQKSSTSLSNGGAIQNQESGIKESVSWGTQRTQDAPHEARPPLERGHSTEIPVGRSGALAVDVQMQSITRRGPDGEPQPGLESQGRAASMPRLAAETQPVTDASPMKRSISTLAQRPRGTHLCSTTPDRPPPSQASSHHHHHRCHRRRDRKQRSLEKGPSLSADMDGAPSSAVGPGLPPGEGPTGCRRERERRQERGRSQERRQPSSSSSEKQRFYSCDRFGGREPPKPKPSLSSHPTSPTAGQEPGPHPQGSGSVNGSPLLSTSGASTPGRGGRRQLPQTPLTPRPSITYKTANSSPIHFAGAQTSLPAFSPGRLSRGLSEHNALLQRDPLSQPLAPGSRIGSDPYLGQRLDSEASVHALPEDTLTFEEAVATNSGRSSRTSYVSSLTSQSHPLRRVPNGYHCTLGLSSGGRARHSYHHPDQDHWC

Biological target: Voltage-dependent N-type calcium channel subunit alpha-1B (Homo sapiens) (UniProt Q00975)
Test: disruptors of CaV2.2 binding to Mint1 – biochemical, HTRF (AID 2073)
Conditions: HTRF protein-protein interaction, Mint1-CaV2.2; at 20 µM; hits give high values

Row | SMILES | inhibition
1 | CC1=CCC(COC(=O)Nc2ccccc2)CC1 (stereo unspecified) | inconclusive: 76.8%
2 | COC(=O)c1sc2ccccc2c1NC(=O)c1ccc(S(=O)(=O)N2CCCCC2C)cc1 (stereo unspecified) | inactive: -0.4%
3 | Cc1ccc(C)c(OCc2nnc(NC(=O)c3ccc4c(c3)OCO4)s2)c1 | inconclusive: 63.8%
4 | O=C1CSC(=Nc2ccccc2)N1Cc1ccccc1 | inconclusive: 63.5%
5 | N=C1C(c2nc(-c3ccc(Br)cc3)cs2)=C(O)CN1NC(=O)c1ccc([N+](=O)[O-])cc1 | inactive: 34.5%
6 | CCCCCN(C(=O)NC(=O)NC(C)CC)S(C)(=O)=O (stereo unspecified) | inconclusive: 77.8%
7 | CCc1ccc(-c2nc(CS(=O)CC(=O)NCCCN3CCC(C)CC3)c(C)o2)cc1 (stereo unspecified) | inconclusive: 54.6%
8 | CC(C)C(=O)N1CCN(c2ccc(NC(=O)c3cccs3)cc2Cl)CC1 | inactive: 0.8%
9 | COc1ccc(NC(=O)CCCn2c(=O)c3sccc3n(Cc3ccc(C)cc3C)c2=O)cc1 | inconclusive: 71.9%
10 | O=C(O)CSCC(=O)Nc1ccc(Cl)cc1C(F)(F)F | inconclusive: 65.8%
11 | Cc1cccc(/C=N/N2CCN(c3ccccc3)CC2)c1 | inactive: -12.6%
12 | CNC(=O)c1c(O)c2cccc3c2n(c1=O)CCC3 | inactive: 22.2%
13 | Cc1nc2ccccc2c(=O)n1CCN1CCOCC1 | inconclusive: 59.4%
14 | COc1ccc(N(CC(=O)NCc2ccco2)S(C)(=O)=O)cc1 | inactive: 2.6%
15 | C/C(CC(=O)Nc1cccc(Cl)c1C)=N\NC(=O)C(=O)NCC(C)C | inconclusive: 57.6%
16 | O=C(COC(=O)/C=C/c1ccco1)NCc1ccco1 | active: 53.7%
17 | O=C(CSc1nc(-c2ccccc2)nc2c1Cc1ccccc1O2)Nc1ccc(C(=O)O)cc1 | inconclusive: 103%
18 | CCOc1cc(NC(=O)c2cccs2)c(OCC)cc1NC(=O)c1ccccn1 | inconclusive: 69.9%
19 | O=C(CSc1nc2cccnc2n1Cc1ccccc1)N1CCCC1 | inconclusive: 51.2%

Row | SMILES | inhibition
20 | CCCCNS(=O)(=O)c1ccc2nc(-c3cccnc3)cc(C(=O)NCCCN(CC)CC)c2c1 | inconclusive: 64.5%
21 | O=C(COc1ncnc2c1cnn2-c1ccccc1)Nc1ccc(S(=O)(=O)N2CCCCC2)cc1 | inconclusive: 54.4%
22 | Cc1ccc(C(CC(=O)c2ccc(Cl)cc2)C(=O)O)cc1 (stereo unspecified) | inconclusive: 77.6%
23 | Cc1ccc(CSCC(=O)Nc2ccc3c(c2)OCO3)cc1 | inconclusive: 61.2%
24 | C[C@@H]1CC=C[C@H]2[C@H]1C(=O)N(Cc1ccccc1)[C@H]2c1ccc(-c2ccc(N(C)C)cc2)cc1F | inconclusive: 52.8%
25 | COc1cc(OC)cc(-n2c3nc4ccccc4nc3c3c(=O)n(CC4CCCO4)cnc32)c1 (stereo unspecified) | inconclusive: 56.5%
26 | CC1(OC(=O)CCc2ccccc2)C(=O)C=C2C=C(c3ccc(C#N)cc3)N(CC3CC3)C=C2C1=O (stereo unspecified) | inconclusive: 66.9%
27 | COC(=O)C1=C(C)NC(=O)/C1=C\N(C)C | inconclusive: 72.3%
28 | Cc1nc2ccccc2c2oc(C(=O)NCCCN3CCC(C)CC3)cc12 | inconclusive: 54.6%
29 | COCCOC(=O)C1=C(C)NC(=O)NC1c1ccc(-c2ccc(F)cc2)o1 (stereo unspecified) | inconclusive: 62.9%
30 | COC(=O)c1ccc(NC(=O)c2cc(Cl)ccc2OC)cc1 | inconclusive: 54.6%
31 | Cc1ccc(C)c(CN2CCC(CNC(=O)Nc3ccc(C)c(C)c3)CC2)c1 | inconclusive: 68.7%
32 | Cc1cc(C)nc(SCC(=O)OCC(=O)Nc2nc3ccccc3s2)n1 | inconclusive: 60.5%
33 | CC(C(=O)Nc1cccc(S(=O)(=O)N2CCOCC2)c1)N1CCN(C/C=C/c2ccccc2)CC1 (stereo unspecified) | inconclusive: 50.9%
34 | c1coc(CN=C2NC(=NCc3ccco3)c3ccccc32)c1 | inactive: 18.7%
35 | CCCCNS(=O)(=O)c1ccc2nc(SCC(=O)c3ccccc3OC)[nH]c2c1 | inconclusive: 69.9%
36 | CC1(C)CC(=O)C2=C(C1)NC(=O)NC2c1ccccc1 (stereo unspecified) | inconclusive: 70.8%
37 | O=C(NC1CC1)C1CCN(C2CCN(C(=O)c3c(F)cccc3Cl)CC2)CC1 | inconclusive: 80.9%
38 | CCOc1ccc2nc(-c3cc(NC(C)=O)ccc3O)sc2c1 | inconclusive: 72.4%

Sorted by number of heavy atoms (low to high): part of the list above.
Row | SMILES | inhibition
19 | O=C(CSc1nc2cccnc2n1Cc1ccccc1)N1CCCC1 | inconclusive: 51.2%
7 | CCc1ccc(-c2nc(CS(=O)CC(=O)NCCCN3CCC(C)CC3)c(C)o2)cc1 (stereo unspecified) | inconclusive: 54.6%
26 | CC1(OC(=O)CCc2ccccc2)C(=O)C=C2C=C(c3ccc(C#N)cc3)N(CC3CC3)C=C2C1=O (stereo unspecified) | inconclusive: 66.9%

Further records:

Row | SMILES | inhibition
39 | COc1ccc(C2CC(=O)N3CN(c4ccc(C)c(Cl)c4)CSC3=C2C#N)cc1 (stereo unspecified) | inactive: 80.8%
40 | CS(=O)(=O)NCCSCc1c(Cl)cccc1Cl | inactive: 28.1%
41 | CC(=O)Nc1ccc2c3c(cccc13)C(=O)N(c1ccccc1)C2=O | inconclusive: 67.3%
42 | COc1ccc(CCNC(=O)CSc2nnc3ccccn23)cc1 | inconclusive: 54.5%
43 | CCCCNc1nc2c(S(=O)(=O)c3ccccc3)nnn2c2ccccc12 | inconclusive: 58.5%
44 | Cc1ccc(Cl)cc1N1CCN(C(=O)Cn2ncn3cccc3c2=O)CC1 | inactive: -1.5%
45 | Cc1[nH]nc(N=CC2=C(O)CC(C)(C)CC2=O)c1-c1ccccc1 | inconclusive: 57.1%
46 | NC(=O)C1CCN(CC(=O)c2c[nH]c3ccc(F)cc23)CC1 | inactive: 1.6%
47 | Cc1cc(C(=O)COC(=O)Cn2c(C(F)(F)F)nc3ccccc32)c(C)n1Cc1ccco1 | inactive: 1.6%
48 | COc1ccc(-c2cn3ccc(C)cc3n2)cc1 | inconclusive: 53.2%
49 | COc1ccccc1N1CCN(C(=O)c2cc(=O)c3cc(C)ccc3o2)CC1 | inconclusive: 58.1%
50 | O=C(CSc1nc2ccccc2c(=O)n1-c1ccc(F)cc1)Nc1cc(S(=O)(=O)N2CCOCC2)ccc1Cl | inconclusive: 57%
51 | N#Cc1c(N2CCCCC2)nc(N2CCCCC2)c2c1CCN(Cc1ccccc1)C2 | inactive: 16.2%
52 | Cc1ccccc1OCC(=O)OC(C(=O)c1ccccc1)c1ccccc1 (stereo unspecified) | inactive: 12.2%
53 | CC1(C)CC(=NOC(=O)c2ccccc2)CC(C)(C)N1O | inconclusive: 84.7%
54 | C/C(=N\Nc1nncc2ccccc12)c1ccc(O)cc1 | inconclusive: 67.4%
55 | O=C(CSc1nnc(-c2ccccc2O)o1)Oc1ccc(Br)cc1 | inactive: 3%
56 | CN(CC(=O)Nc1ccccc1N1CCOCC1)CC(=O)Nc1ccc(F)c(F)c1F | inconclusive: 68.1%
